# Percent effect of library compounds

Chains of the proteins cited; added tags and fusions are not shown.
UniProt P9WFT3, whole entry: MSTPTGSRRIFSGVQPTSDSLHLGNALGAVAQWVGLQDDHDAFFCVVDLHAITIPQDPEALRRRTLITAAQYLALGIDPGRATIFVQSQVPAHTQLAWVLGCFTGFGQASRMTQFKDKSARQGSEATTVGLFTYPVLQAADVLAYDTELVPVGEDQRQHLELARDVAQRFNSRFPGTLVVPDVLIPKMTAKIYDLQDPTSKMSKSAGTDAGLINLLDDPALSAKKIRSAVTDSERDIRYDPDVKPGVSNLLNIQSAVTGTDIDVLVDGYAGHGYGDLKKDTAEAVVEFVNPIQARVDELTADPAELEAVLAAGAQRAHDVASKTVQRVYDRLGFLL
UniProt P9WPC5, whole entry: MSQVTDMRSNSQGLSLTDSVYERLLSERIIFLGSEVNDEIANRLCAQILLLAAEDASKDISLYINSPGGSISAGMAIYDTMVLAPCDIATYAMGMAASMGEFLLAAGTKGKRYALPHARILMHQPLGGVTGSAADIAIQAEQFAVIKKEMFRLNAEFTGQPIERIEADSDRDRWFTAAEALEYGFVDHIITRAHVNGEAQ
UniProt P9WPC3, whole entry partner: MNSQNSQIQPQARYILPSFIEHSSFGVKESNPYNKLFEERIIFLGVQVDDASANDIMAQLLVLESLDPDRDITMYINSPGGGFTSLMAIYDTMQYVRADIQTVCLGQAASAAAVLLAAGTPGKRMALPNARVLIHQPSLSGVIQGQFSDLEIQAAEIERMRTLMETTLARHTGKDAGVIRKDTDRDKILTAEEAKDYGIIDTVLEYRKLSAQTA
UniProt P9WNZ1, whole entry: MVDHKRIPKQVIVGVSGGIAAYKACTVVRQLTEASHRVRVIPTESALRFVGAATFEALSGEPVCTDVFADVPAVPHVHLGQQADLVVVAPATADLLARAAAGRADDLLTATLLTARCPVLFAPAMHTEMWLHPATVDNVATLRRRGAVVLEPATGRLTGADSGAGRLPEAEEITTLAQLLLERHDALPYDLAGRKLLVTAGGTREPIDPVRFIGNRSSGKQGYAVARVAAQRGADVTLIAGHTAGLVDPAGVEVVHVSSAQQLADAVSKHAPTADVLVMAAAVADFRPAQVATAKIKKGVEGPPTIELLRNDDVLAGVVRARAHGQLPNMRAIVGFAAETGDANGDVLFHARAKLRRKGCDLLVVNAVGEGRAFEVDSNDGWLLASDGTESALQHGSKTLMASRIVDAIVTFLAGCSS
UniProt I6X8D2, whole entry: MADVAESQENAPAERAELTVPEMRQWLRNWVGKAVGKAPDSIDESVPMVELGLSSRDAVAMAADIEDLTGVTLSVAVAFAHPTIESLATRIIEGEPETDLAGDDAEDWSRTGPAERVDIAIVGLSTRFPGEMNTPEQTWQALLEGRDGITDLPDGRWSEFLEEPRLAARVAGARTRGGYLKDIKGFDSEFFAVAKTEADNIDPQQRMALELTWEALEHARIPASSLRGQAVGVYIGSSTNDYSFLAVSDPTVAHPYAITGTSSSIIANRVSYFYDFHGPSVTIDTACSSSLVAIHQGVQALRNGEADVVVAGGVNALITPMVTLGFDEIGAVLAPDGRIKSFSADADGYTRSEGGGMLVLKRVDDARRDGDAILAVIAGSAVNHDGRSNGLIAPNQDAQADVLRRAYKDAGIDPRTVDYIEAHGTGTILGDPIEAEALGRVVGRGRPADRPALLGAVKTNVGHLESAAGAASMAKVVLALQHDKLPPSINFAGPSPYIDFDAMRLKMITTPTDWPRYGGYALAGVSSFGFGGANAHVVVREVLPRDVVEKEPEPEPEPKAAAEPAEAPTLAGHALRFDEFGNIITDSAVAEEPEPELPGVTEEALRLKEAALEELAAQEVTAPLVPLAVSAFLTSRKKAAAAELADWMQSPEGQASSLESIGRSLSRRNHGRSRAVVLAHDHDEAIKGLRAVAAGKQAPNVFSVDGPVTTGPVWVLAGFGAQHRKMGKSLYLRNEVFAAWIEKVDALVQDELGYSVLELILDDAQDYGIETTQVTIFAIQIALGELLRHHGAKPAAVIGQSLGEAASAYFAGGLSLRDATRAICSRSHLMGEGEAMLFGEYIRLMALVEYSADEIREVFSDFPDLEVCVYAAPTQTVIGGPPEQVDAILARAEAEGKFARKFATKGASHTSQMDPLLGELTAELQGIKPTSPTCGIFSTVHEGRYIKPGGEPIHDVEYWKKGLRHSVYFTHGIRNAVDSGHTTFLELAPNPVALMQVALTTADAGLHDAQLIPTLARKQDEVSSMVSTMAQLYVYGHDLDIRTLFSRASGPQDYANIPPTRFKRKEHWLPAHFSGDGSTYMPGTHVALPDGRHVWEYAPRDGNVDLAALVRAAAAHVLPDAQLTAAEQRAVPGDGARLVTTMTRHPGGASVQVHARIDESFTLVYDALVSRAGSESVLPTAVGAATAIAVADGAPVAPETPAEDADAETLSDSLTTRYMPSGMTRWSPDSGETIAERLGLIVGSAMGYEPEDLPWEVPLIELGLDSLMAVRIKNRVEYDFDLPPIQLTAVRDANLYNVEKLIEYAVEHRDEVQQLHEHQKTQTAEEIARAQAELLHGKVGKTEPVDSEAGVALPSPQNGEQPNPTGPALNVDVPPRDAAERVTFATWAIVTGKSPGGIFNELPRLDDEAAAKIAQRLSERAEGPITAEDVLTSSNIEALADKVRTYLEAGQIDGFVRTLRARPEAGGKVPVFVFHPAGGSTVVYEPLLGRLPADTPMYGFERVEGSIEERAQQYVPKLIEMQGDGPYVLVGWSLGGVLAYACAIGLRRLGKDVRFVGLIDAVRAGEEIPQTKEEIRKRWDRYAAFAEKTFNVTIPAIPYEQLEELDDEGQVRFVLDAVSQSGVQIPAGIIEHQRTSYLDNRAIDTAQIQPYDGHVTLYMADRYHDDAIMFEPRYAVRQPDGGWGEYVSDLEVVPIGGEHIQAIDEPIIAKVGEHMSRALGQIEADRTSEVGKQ

Measurements from “University of Dundee, Small-Polar-MMV Screening Library” (2021), ChEMBL document CHEMBL3988442.

A: 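Tryptophan-tRNA ligase, Mycobacterium tuberculosis (UniProt P9WFT3). Enzyme assay of tryptophanyl-tRNA synthetase; the read-out is not stated. Compounds at 10 µM. Direction is not recorded; retested compounds ran higher, which suggests that high means inhibition. Size under these conditions: about 65,000 compounds, about 64 of them at 50% or above in at least one test.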
B: 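Assay of Toxoplasma gondii numbers, read through their beta-galactosidase reporter with a colour substrate. Tested at 10 µM. The record gives no direction; the compounds picked for IC50 retests had high values, so higher reads as fewer parasites. About 67,000 compounds were tested under these conditions; 0.38% (about 260) showed 50% or more at least once.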
C: 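ClpP1P2, Mycobacterium tuberculosis (UniProt P9WPC5 and UniProt P9WPC3). Protease assay of ClpP1P2, read by the AMC dye that it sets free. Compounds at 50 µM. Higher reads as stronger inhibition, judged from the few compounds that gave an IC50. Most other retested compounds had strongly negative values. Of about 69,000 compounds tested this way, about 10 (0.015%) reached 50% or more in at least one test.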
D: 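Enzyme assay of CoaBC with a phosphate dye (Biomol Green) read at 650 nm. Target: Coenzyme A biosynthesis protein CoaBC, Mycobacterium tuberculosis (UniProt P9WNZ1). Compounds at 30 µM. Direction is inferred from only a few compounds that gave an IC50; most scored high, so higher reads as stronger inhibition. Most strong results did not repeat in a second test. About 67,000 compounds were tested under these conditions; 0.06% (about 40) showed 50% or more at least once.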
E: 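Polyketide synthase Pks13, Mycobacterium tuberculosis (UniProt I6X8D2). Enzyme assay of the thioesterase domain of polyketide synthase 13; the read-out is not stated. Concentration: 30 µM. The record gives no direction; the compounds picked for IC50 retests had high values, so higher reads as stronger inhibition. About 67,000 compounds were tested under these conditions; 0.46% (about 300) showed 50% or more at least once.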

Each number is a percent effect as filed. How 0% and 100% were set is not recorded. Most values in the screen are low, and negative values occur. Compounds were drawn at random from those tested, without regard to their results. A dash means the value is not listed here; it may have been measured.

| # | Compound | A | B | C | D | E |
|---|---|---|---|---|---|---|
| 1 | `CC1CCN(C(=O)[C@@H]2C[C@@H]3CCN(Cc4nccs4)C[C@H]3O2)CC1` | - | - | -5.961% | 4.444% | -13.05% |
| 2 | `COc1cc(N2CCCC3(CCN(c4cccnc4)C3=O)C2)ncn1` (stereo not shown) | -2.208% | - | 5.098% | 2.956% | -14.48% |
| 3 | `CN1CCCC1CCn1ccnc1-c1ccc2ccccc2n1` (stereo not shown) | -3.271% | 1.653% | 6.96% | -18.18% | 5.186% |
| 4 | `CC(C)c1nc(CN(C)C2CCN(CCc3ccncc3)C2)no1` (stereo not shown) | 0.5111% | 19.47% | -53.41% | -4.021% | -14.93% |
| 5 | `CCc1ccc2nc(C)cc(C(=O)NC3CCCCNC3=O)c2c1` (stereo not shown) | -3.701% | 5.776% | -1.717% | 0.3681% | -11.4% |
| 6 | `O=c1n(CCNCc2ccc(-c3ccccc3)cc2)nc2ccccn12` | -3.226% | -0.5445% | -8.305% | 6.061% | 1.588% |
| 7 | `c1ccc(Cc2nnc(CN3CCn4c(nnc4C4CC4)C3)o2)cc1` | -2.682% | 6.003% | -22.71% | 1.305% | -2.136% |
| 8 | `CC(C)c1nccn1-c1nccnc1C1CCCN1Cc1cccnc1` (stereo not shown) | -8.628% | - | -24.81% | 4.038% | 16.46% |
| 9 | `[H][C@]12CC[C@]([H])(CC(=O)NC1)N2C1CCSCC1` | - | 1.323% | - | - | - |
| 10 | `Cc1ccc2nc(CNc3ccccc3C(=O)NC3CC3)cn2c1` | 1.25% | 17.27% | -71.73% | 2.806% | -10.42% |
| 11 | `O=C(Cc1cnccn1)N1C[C@H]2CC[C@@H]1CN(Cc1cscn1)C2` | -0.1236% | - | -14.3% | 3.576% | -24.82% |
| 12 | `Cc1cc(C)n(-c2cncc(N3CCC(C(=O)N(C)C)CC3)n2)n1` | 0.8894% | -0.4823% | -13.56% | -3.571% | 8.677% |
| 13 | `O=C(c1cn(-c2ccccc2)nn1)N1CCOCC(O)C1` (stereo not shown) | 1.591% | -3.738% | -4.93% | 12.1% | -16.86% |
| 14 | `CCn1nc2c(cc1=O)CN(Cc1nc(C)c(C)o1)CC2` | -6.659% | -6.539% | -70.21% | 1.956% | 12.71% |
| 15 | `[H][C@]12CN(CCN3CCCC3)C(=O)[C@@]1([H])CN(c1cc(OC)ncn1)C2` | - | 1.888% | - | - | - |
| 16 | `OC[C@H]1CC[C@]2(CC1)CN(Cc1ccccn1)Cc1ccccc1O2` | -2.592% | - | -8.282% | 2.778% | -24.52% |
| 17 | `CC(C)(C)n1ncc2c1NC(=O)CC2c1ccccc1` (stereo not shown) | 4.595% | -9.62% | -9.799% | 0.8772% | -17.31% |
| 18 | `CN1CC2(CCN(c3ncnc4c3CCNC4)CC2)OC1=O` | -0.3137% | -3.081% | -1.747% | 13.11% | -37.73% |
| 19 | `O=C(NCc1csc2ccc(Cl)cc12)c1cc2n(n1)CCNC2` | -3.52% | 19% | -12.01% | 10.16% | 23.48% |
| 20 | `CN(Cc1ccc(Cl)s1)C(=O)CN(C)C1CCCc2ccccc21` (stereo not shown) | -7.869% | 12.24% | -17.8% | 14.52% | -2.107% |
| 21 | `Cc1ccc(N2CCOC(C)(C(=O)N(C)C)C2)nn1` (stereo not shown) | -0.2342% | 9.496% | -12.97% | 6.993% | 6.112% |
| 22 | `COc1cccc(CSCC2=Nc3ccccc3S(=O)(=O)N2)c1` | -4.938% | 8.295% | 0.6291% | 1.556% | - |
| 23 | `CC(C(=O)N1CCCN(Cc2ccc(C#N)cc2)CC1)n1cccn1` (stereo not shown) | -6.466% | 17.49% | -9.991% | 2.915% | -8.788% |
| 24 | `CCc1ccc(C(=O)N2CCN(CC(C)O)CC2)o1` (stereo not shown) | 0.3145% | -36.13% | 27.01% | 3.191% | -10.75% |
| 25 | `O=c1cc(N2CCNCC2)cnn1CCCn1cccn1` | 0.9839% | -6.124% | -5.014% | 2.8% | -28.29% |
| 26 | `CC(=O)N1CC[C@H]2OCC[C@@H](C(=O)Nc3cccnc3C)[C@@H]2C1` | - | - | -4.262% | 3.515% | 2.657% |
| 27 | `O=C(CCn1cccn1)NCCOc1cccc(Cl)c1` | 4.542% | 0.5942% | 13.1% | 11% | -17.74% |
| 28 | `CCOCC(O)CN1CCN(C(=O)c2ccc(C)nc2)CC1` (stereo not shown) | -0.4394% | -16.2% | -10.8% | 6.717% | -18.74% |
| 29 | `Cc1nn(S(=O)(=O)c2ccc(Cl)cc2)c(C)c1C` | 0.9332% | 1.583% | 16.86% | -4.509% | 15.23% |
| 30 | `CCn1cc(CN2CCCN(C(=O)CCc3cnn(C)c3)CC2)cn1` | -3.311% | 4.325% | 6.869% | 7.097% | -20.29% |
| 31 | `CNC(=O)COC1COC2(CCN(Cc3cccnc3OC)CC2)C1.O=C(O)C(F)(F)F` (stereo not shown) | - | 17.59% | - | - | - |
| 32 | `C[S+](C)[c-]1c(=O)[nH]c(=O)n(CCc2ccc(F)cc2)c1=O` | -5.432% | 11.54% | -9.261% | -1.151% | 1.819% |

The first 4 entries again:

{"compound": "CC1CCN(C(=O)[C@@H]2C[C@@H]3CCN(Cc4nccs4)C[C@H]3O2)CC1", "C": -5.961, "D": 4.444, "E": -13.05}
{"compound": "COc1cc(N2CCCC3(CCN(c4cccnc4)C3=O)C2)ncn1", "stereo": "stereo not shown", "A": -2.208, "C": 5.098, "D": 2.956, "E": -14.48}
{"compound": "CN1CCCC1CCn1ccnc1-c1ccc2ccccc2n1", "stereo": "stereo not shown", "A": -3.271, "B": 1.653, "C": 6.96, "D": -18.18, "E": 5.186}
{"compound": "CC(C)c1nc(CN(C)C2CCN(CCc3ccncc3)C2)no1", "stereo": "stereo not shown", "A": 0.5111, "B": 19.47, "C": -53.41, "D": -4.021, "E": -14.93}